{"sequences": {"note": "Protein sequences, listed by entry. Tags and fused reporters are not part of them.", "UniProt Q9Z2E1": "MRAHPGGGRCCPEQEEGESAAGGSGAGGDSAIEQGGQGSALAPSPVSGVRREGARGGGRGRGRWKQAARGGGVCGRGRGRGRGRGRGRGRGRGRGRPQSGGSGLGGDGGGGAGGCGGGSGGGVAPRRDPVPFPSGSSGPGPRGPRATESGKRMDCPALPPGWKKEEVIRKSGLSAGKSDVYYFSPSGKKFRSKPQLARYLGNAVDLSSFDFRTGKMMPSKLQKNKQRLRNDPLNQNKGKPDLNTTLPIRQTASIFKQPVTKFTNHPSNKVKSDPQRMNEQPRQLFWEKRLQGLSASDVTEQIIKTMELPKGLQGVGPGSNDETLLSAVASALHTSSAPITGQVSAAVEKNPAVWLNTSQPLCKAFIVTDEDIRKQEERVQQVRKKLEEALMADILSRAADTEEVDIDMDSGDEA", "UniProt Q9QVP9": "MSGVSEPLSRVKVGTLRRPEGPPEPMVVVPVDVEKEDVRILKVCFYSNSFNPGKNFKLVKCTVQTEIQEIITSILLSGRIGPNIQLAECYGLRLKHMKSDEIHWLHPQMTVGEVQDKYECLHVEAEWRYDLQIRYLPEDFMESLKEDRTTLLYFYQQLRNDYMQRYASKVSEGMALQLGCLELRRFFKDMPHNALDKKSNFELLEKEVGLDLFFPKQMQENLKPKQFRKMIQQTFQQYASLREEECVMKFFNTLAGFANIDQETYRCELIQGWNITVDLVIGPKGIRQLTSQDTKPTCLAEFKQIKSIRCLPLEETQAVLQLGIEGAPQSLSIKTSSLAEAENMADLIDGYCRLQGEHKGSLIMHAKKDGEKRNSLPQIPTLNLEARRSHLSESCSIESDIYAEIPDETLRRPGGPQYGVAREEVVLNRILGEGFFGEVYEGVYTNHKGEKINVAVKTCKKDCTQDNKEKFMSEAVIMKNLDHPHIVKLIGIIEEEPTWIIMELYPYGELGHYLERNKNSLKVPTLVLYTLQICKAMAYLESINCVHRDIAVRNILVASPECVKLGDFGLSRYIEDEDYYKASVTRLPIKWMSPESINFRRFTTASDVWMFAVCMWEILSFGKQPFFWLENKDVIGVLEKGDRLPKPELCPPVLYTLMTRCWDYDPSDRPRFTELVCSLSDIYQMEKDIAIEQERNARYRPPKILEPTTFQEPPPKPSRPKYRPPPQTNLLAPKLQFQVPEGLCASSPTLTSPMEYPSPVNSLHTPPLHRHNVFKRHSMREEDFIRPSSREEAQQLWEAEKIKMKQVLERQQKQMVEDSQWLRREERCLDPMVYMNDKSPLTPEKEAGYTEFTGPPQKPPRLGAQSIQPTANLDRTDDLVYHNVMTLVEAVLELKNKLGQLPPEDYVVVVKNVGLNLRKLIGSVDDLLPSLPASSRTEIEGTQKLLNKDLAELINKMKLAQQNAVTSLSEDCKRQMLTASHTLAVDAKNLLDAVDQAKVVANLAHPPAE"}, "source": "paper PMC4026426", "key": {"[1]": {"target": "methyl-CpG-binding domain protein 2 (MBD2) (mouse (endogenous in MLO-Y4)) (UniProt Q9Z2E1)", "experiment": "co-IP; MLO-Y4 osteocytes under static culture (no OFSS); endogenous proteins; immunoprecipitation with anti-MBD2, blot probed with anti-Pyk2 (Y402); buffer 1% Triton-X-100, 145 mM NaCl, 10 mM Tris-Cl pH 7.4, 5 mM EDTA, 2 mM EGTA, 1 mM PMSF"}, "[2]": {"target": "methyl-CpG-binding domain protein 2 (MBD2) (mouse (endogenous in MLO-Y4)) (UniProt Q9Z2E1)", "experiment": "co-IP; MLO-Y4 osteocytes after 20 minutes of OFSS; endogenous proteins; immunoprecipitation with anti-MBD2 or anti-Src (Y418), blot probed with anti-Pyk2 (Y402); buffer 1% Triton-X-100, 145 mM NaCl, 10 mM Tris-Cl pH 7.4, 5 mM EDTA, 2 mM EGTA, 1 mM PMSF"}, "[3]": {"target": "Pyk2 (mouse (endogenous in MLO-Y4)) (UniProt Q9QVP9)", "experiment": "co-IP; MLO-Y4 osteocyte lysates, static culture; endogenous proteins; antibodies to either Pyk2 or MBD2, reciprocal western blot; buffer 1% Triton-X-100, 145 mM NaCl, 10 mM Tris-Cl pH 7.4, 5 mM EDTA, 2 mM EGTA, 1 mM PMSF; Protein A sepharose"}, "[4]": {"target": "methyl-CpG-binding domain protein 2 (MBD2) (mouse (endogenous in MLO-Y4)) (UniProt Q9Z2E1)", "experiment": "co-IP; MLO-Y4 osteocyte lysates, static culture; endogenous proteins; antibodies to either Pyk2 or MBD2, reciprocal western blot; buffer 1% Triton-X-100, 145 mM NaCl, 10 mM Tris-Cl pH 7.4, 5 mM EDTA, 2 mM EGTA, 1 mM PMSF; Protein A sepharose"}}, "note": "Results are given in words; binding and its absence hold for the method and conditions named. Binding seen in cells or lysates may run through a third protein. Some results given as binding are weak or reduced against the parent protein; the word gives no strength.", "data": [{"substance": "Pyk2 (Y402), activated Pyk2 phosphorylated at tyrosine 402 (from UniProt Q9QVP9 1-1009)", "values": [{"measurement": "binding", "setting": "[1]", "result": "no binding (condition: static culture, without OFSS)"}, {"measurement": "binding", "setting": "[2]", "result": "binds"}]}, {"substance": "methyl-CpG-binding domain protein 2 (MBD2) (from UniProt Q9Z2E1 1-414)", "values": [{"measurement": "binding", "setting": "[3]", "result": "binds"}]}, {"substance": "Pyk2 (from UniProt Q9QVP9 1-1009)", "values": [{"measurement": "binding", "setting": "[4]", "result": "binds"}]}]}
